# Test results taken from PubChem BioAssay AID540256 (National Center for Advancing Translational Sciences (NCATS), 2011).
# Among all 300,000 compounds or so, about 3,700 (1.2%) were called active. The inconclusive results got no clear call from the source; some entries with a clear call stand among them for comparison. The call rests on the fitted dose curve; tested in HEK293 cells. A potency beside an inconclusive call is a rough fit, not a confirmed value.
# Experiment: qHTS for Inhibitors of binding or entry into cells for Lassa Virus; further: nearly all actives have a fitted effect of over 50% in size
# Conditions: Lassa virus pseudotype entry inhibition, cell reporter; activity change, negative = inhibition: at 37.9 µM (top of the series) unless noted
# On the % scale 0 is the no-effect control and ±100 the full control effect; potency means the concentration at half of the fitted maximal effect.
SMILES,"activity change, negative = inhibition",Potency
CN(CC(=O)Nc1ccc(Cl)c(C(F)(F)F)c1)C(=O)C1CC(=O)N(Cc2ccco2)C1 (centres undefined),inactive: -0.982%,
CCOC(=O)N1CCN(CCC(=O)Nc2ccc(Br)c(C)c2)CC1,,"inconclusive: 20 µM [inhibitor, single point]"
CN1CC(=O)Nc2ccc(F)cc2C1=O,inactive: -3.37%,
CCCCOc1ccccc1NC(=O)CC1Sc2ccccc2NC1=O (centres undefined),inactive: 6.67% [at 46.1 µM],
CN1CCN(C(=S)SCC(=O)Nc2ccc(Cl)cc2C(=O)c2ccccc2)CC1,,"inconclusive: 18.4 µM [inhibitor, single point]"
O=C(Nc1ccsc1C(=O)O)c1cccc(Oc2ccccc2)c1,,"inconclusive: 35.5 µM [inhibitor, partial curve, poor fit]"
CCc1ccc(OCCCC(=O)NCc2ccccc2)cc1,,"inconclusive: 7.08 µM [inhibitor, partial curve, poor fit]"
CN1CCN(CCCNC(=O)C2CC(=O)N(C3CCCCC3)C2)CC1 (centres undefined),,"inconclusive: 35.5 µM [activator, partial curve, poor fit]"
Cc1cc(C)nc(N2N=C(C(C)(C)C)CC2=O)n1,,"inconclusive: 0.13 µM [activator, full curve, poor fit]"
Cc1cc(N(CCO)CCO)ccc1C(c1ccc(N(CCO)CCO)cc1C)c1ccccc1Cl,,"inconclusive: 11.2 µM [inhibitor, single point]"
CC(=O)c1ccc(N2CCN(C(=O)/C=C/c3ccc(S(=O)(=O)NCc4ccco4)cc3)CC2)cc1,,"inconclusive: 10 µM [inhibitor, partial curve, poor fit]"
CN(C)C1(CNC(=O)C2CCC(=O)N(CCc3ccc(Cl)cc3)C2)CCCCC1 (centres undefined),,"inconclusive: 2.82 µM [activator, single point]"
Nc1ccc(C(=O)OCc2nc3cc4ccccc4cc3[nH]2)cc1,,active: 2.59 µM
COc1ccccc1NC(=O)CN1CCN(CC(=O)Nc2ccc(F)cc2)CC1,inactive: 2.29%,
CC(=O)N1CCCc2cc(S(=O)(=O)N3CCC(C(=O)N(C)C4CCCCC4)CC3)ccc21,,"inconclusive: 2.24 µM [inhibitor, partial curve, poor fit]"
CCOc1ccc2[nH]c3c(N4CCN(C(=O)c5ccco5)CC4)ncnc3c2c1,,"inconclusive: 31.6 µM [inhibitor, single point]"
CSc1nc(NCC(C)C)c2c3c(sc2n1)CN(C)CC3,,"inconclusive: 18.3 µM [inhibitor, single point]"
FC(F)(F)c1cnc(Oc2ccc(-c3nnco3)cc2)c(Cl)c1,inactive: 12.2%,
Cc1ccccc1N1CCN(C2CCCN(C(=O)c3snnc3C)C2)CC1 (centres undefined),,"inconclusive: 0.631 µM [inhibitor, single point]"

# Sorted by SMILES length (low to high): part of the list above.
SMILES,"activity change, negative = inhibition",Potency
CN1CCN(CCCNC(=O)C2CC(=O)N(C3CCCCC3)C2)CC1 (centres undefined),,"inconclusive: 35.5 µM [activator, partial curve, poor fit]"
CC(=O)N1CCCc2cc(S(=O)(=O)N3CCC(C(=O)N(C)C4CCCCC4)CC3)ccc21,,"inconclusive: 2.24 µM [inhibitor, partial curve, poor fit]"
CN(CC(=O)Nc1ccc(Cl)c(C(F)(F)F)c1)C(=O)C1CC(=O)N(Cc2ccco2)C1 (centres undefined),inactive: -0.982%,
